PubChem BioAssay AID2685 (National Center for Advancing Translational Sciences (NCATS), 2010)
Hit rate of the full screen: of about 320,000 compounds, about 2,100 (0.66%) were called active. This list was built around the results that the source calls inconclusive (neither active nor inactive); the mix of calls is not that of the screen. Calls follow the shape of the dose curve; as a rule, active = well fitted inhibition curve with a large enough effect in the signal ratio, with a control signal flat (not every such curve was filed as active); inconclusive = small, poorly fitted or top-dose-only effect, or effect the other way, or a change in a side signal; inactive = flat fitted curve, though single readings scatter; the % refers to the signal ratio. Where the call is inconclusive, the potency comes from a doubtful curve fit.
% is scaled to controls: 0 for no effect and ±100 for the full control effect; potency is read from the fitted curve at half-maximal effect.

Assay: qHTS Assay for Lipid Storage Modulators in Drosophila S3 Cells
Settings: BODIPY lipid droplet fluorescence, 18-24 h, cells fed with added oleic acid; lipid storage change, negative = inhibition: at 46.1 µM (top of the series) unless noted
Procedure, shortened: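 Laser-scanning cytometry quantifies lipid droplet accumulation (500–530 nm total intensity; droplet/cell object ratio) in oleic acid-fed (400 uM added) Drosophila S3 cells treated with a concentration series. 20 uM Triacsin C defined 100% inhibition.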
With `COc1ccccc1NC(=O)Nc1nc(CC(=O)Nc2ccc(F)c(F)c2)cs1` the lipid storage change, negative = inhibition was inconclusive: -22.5% [at 0.0737 µM]. With `CCC(CC)C(=O)NCc1cccnc1` the Potency was inconclusive: 3.66 µM [rising, full curve, poor fit]. In the case of `Cc1ccc(C2CC(C(F)F)n3ncc(C(=O)Nc4c(C)nn(Cc5c(F)cccc5Cl)c4C)c3N2)cc1` (stereo not given), the lipid storage change, negative = inhibition is reported as “inactive”. In the case of `COc1cccc(NC(=O)CN2C(=O)NC(C)(CC(C)C)C2=O)c1` (stereo not given), the lipid storage change, negative = inhibition is reported as inconclusive: 28.4%. In the case of `COc1ccc(S(=O)(=O)CCC(=O)Nc2c(C)cccc2C)cc1`, the lipid storage change, negative = inhibition is reported as inconclusive: 9.42%. In the case of `O=C(NCCc1ccc(Cl)cc1)c1ccc2ccccc2n1`, the Potency is reported as inconclusive: 0.116 µM [activator, full curve, poor fit]. In the case of `Cc1ccc(OCCC(=O)Nc2ccc(C)c(S(=O)(=O)N3CCOCC3)c2)cc1`, the lipid storage change, negative = inhibition is reported as inconclusive: -27.5%. For `O=C(CCCCCN1C(=O)CCC1=O)Nc1ncn[nH]1`, the lipid storage change, negative = inhibition was inconclusive: 6.76%. For `CC(NC(=O)c1ccccc1Br)c1nnc(SCC(=O)NC2=NCCS2)n1C` (stereo not given), the lipid storage change, negative = inhibition was inconclusive: 71.1%. In the case of `CCOc1ccc(S(=O)(=O)n2cc(-c3ccccc3)c(N)n2)cc1`, the lipid storage change, negative = inhibition is reported as inconclusive: -158%. In the case of `Cc1nc(N)ncc1Sc1ccc(Cl)cc1`, the lipid storage change, negative = inhibition is reported as inconclusive: 19.7%. For `Cc1ccc(NCC(=O)N/N=C/c2cccn2C)cc1`, the Potency was inconclusive: 1.46 µM [activator, partial curve]. With `O=C(CSc1n[nH]c(-c2ccco2)n1)Nc1ccccc1F` the lipid storage change, negative = inhibition was inconclusive: 394%. With `CCc1nnc(NC(=O)CCC(=O)NCc2ccc(C)cc2)s1` the lipid storage change, negative = inhibition was “inactive”. With `CCN(CC)CCNC(=O)c1[nH]c2ccc(OCc3ccccc3)cc2c1C` the lipid storage change, negative = inhibition was inconclusive: 28.9%. For `COc1ccc2ccccc2c1C(O)c1nccn1C` (stereo not given), the lipid storage change, negative = inhibition was inconclusive: -38.3%. With `O=C(CN1CCNCC1)Nc1ccccc1Cl` the lipid storage change, negative = inhibition was inconclusive: 7.65%. For `CCN1CCSc2ccc(C(=O)NCc3cccc(Br)c3)cc21`, the lipid storage change, negative = inhibition was inconclusive: -15%. With `Cc1cc(C(=O)NNC(=O)c2sccc2C)c(C)o1` the Potency was inconclusive: 0.92 µM [activator, partial curve, poor fit]. In the case of `CS(=O)(=O)N(Cc1ccc(F)cc1)Cc1nc2ccccc2c(=O)[nH]1`, the lipid storage change, negative = inhibition is reported as inconclusive: 47.5%. In the case of `CC(C)n1cc(NC(=O)COc2ccccc2Cl)cn1`, the lipid storage change, negative = inhibition is reported as inconclusive: -12.2%. For `C=CCn1c(SCC(N)=O)nnc1-c1cccc(Br)c1`, the lipid storage change, negative = inhibition was inconclusive: 19.8%. With `CCCC1CCC(=C(C#N)C(N)=O)CC1` (stereo not given) the lipid storage change, negative = inhibition was inconclusive: -7.97%. In the case of `CCNC(=O)NC(=O)C(C)Oc1ccc(C(=O)OC)cc1` (stereo not given), the Potency is reported as inconclusive: 2.06 µM [falling, partial curve]. With `Cc1ccc(CONC(=O)c2ccc(OC(F)F)cc2)cc1` the lipid storage change, negative = inhibition was inconclusive: 25%. With `C/C(=N\NC(=O)c1ccc(CSc2nncn2C)cc1)c1ccc(Cl)cc1` the lipid storage change, negative = inhibition was inconclusive: 1.02%. With `COc1ccc(-n2nc(C(=O)NCC(=O)N3CC(C)CC(C)C3)c3ccccc3c2=O)cc1` (stereo not given) the lipid storage change, negative = inhibition was inconclusive: 17.4%. For `CC(Oc1ccc(Cl)cc1Cl)C(=O)NN=C1CCN(C)CC1` (stereo not given), the lipid storage change, negative = inhibition was inconclusive: -19.3%. In the case of `CC(C)(C)NC(=O)NC(=O)CSc1ccc(S(=O)(=O)N2CCOCC2)cn1`, the Potency is reported as inconclusive: 8.2 µM [falling, single point]. For `COc1cc(C(=O)Nc2nnc(S(=O)(=O)N3CCCCCC3)s2)cc(OC)c1OC`, the lipid storage change, negative = inhibition was inconclusive: -17.6%. For `Cc1nc(CN2CCN(Cc3nc(C(c4ccccc4)c4ccccc4)no3)CC2)cs1`, the lipid storage change, negative = inhibition was inconclusive: -12.9%. For `CCSc1nnc(-c2cccs2)o1`, the Potency was inconclusive: 29.1 µM [cytotoxic, single point]. With `CNC(=O)/C(=C/c1ccc2c(c1)OCO2)NC(=O)c1ccc(Br)cc1` the Potency was inconclusive: 2.06 µM [activator, partial curve, poor fit]. With `COc1ccc(-c2cc(CNS(=O)(=O)c3ccccc3)on2)cc1` the lipid storage change, negative = inhibition was inconclusive: 29.1%. In the case of `CN1CCN(C2=C(Cl)C(=O)N(c3ccc(Cl)cc3)C2=O)CC1`, the Potency is reported as inconclusive: 0.517 µM [falling, single point]. In the case of `Oc1c(C=C2N=c3ccccc3=N2)sc(=S)n1-c1ccccc1`, the Potency is reported as inconclusive: 4.61 µM [falling, full curve, poor fit]. With `Fc1ccc(CNn2cnnc2SCc2ccc(F)cc2)cc1` the lipid storage change, negative = inhibition was “inactive”. For `COCCNC(=O)c1onc(CSc2ccc(F)cc2)c1C(=O)NCCOC`, the lipid storage change, negative = inhibition was inconclusive: 16.4%. With `CCCNC(=O)CSc1nnc(-c2ccc(F)cc2)o1` the lipid storage change, negative = inhibition was inconclusive: 15% [at 9.22 µM]. With `CCCS(=O)(=O)N1CCCC(C(=O)NCc2ccc3c(c2)OCO3)C1` (stereo not given) the lipid storage change, negative = inhibition was inconclusive: -27.3%. For `CCOc1ccc(OCC)c(NC(=O)CCNS(=O)(=O)c2cc(Br)cnc2N)c1`, the Potency was active: 1.3 µM. In the case of `CC(=O)c1cccc(NC(=O)CSc2nc(=O)n(CCN3CCOCC3)c3c2CCC3)c1`, the lipid storage change, negative = inhibition is reported as inconclusive: 43.5%. For `CCc1nnc(NC(=O)CSc2nnc(-c3ccc(S(=O)(=O)N4CCCC4)cc3)n2CC)s1`, the lipid storage change, negative = inhibition was inconclusive: -21.1%. For `Cc1cc(N/N=C/c2ccccc2Br)nc2ccccc12`, the lipid storage change, negative = inhibition was inconclusive: 19.2%. In the case of `COc1ccc2c(c1)CCc1c(C(=O)NCCCn3ccnc3)noc1-2`, the Potency is reported as inconclusive: 23.1 µM [falling, single point]. For `CC(C)OC(=O)C1C(=O)CC(C)(O)C(C(=O)OC(C)C)C1c1ccccc1` (stereo not given), the lipid storage change, negative = inhibition was inconclusive: -6.06%. For `COc1ccc2nc(NC(=O)CN(c3ccc(C)cc3)S(=O)(=O)c3c(C)nn(C)c3C)sc2c1`, the lipid storage change, negative = inhibition was inconclusive: -43.4%. For `COc1cccc(-c2csc(N3CCN(CC(=O)NNC(=O)c4ccc(Br)cc4)CC3)n2)c1`, the Potency was inconclusive: 29.1 µM [activator, single point]. For `CO/N=C(\c1ccccc1)c1cccnc1`, the Potency was inconclusive: 29.1 µM [activator, single point]. With `O=C(Nc1cc2c(cc1C(=O)O)OCCCO2)c1ccc(F)cc1F` the lipid storage change, negative = inhibition was inconclusive: 31.3%. With `Cn1c(SCC(=O)Nc2cccc(F)c2)nc2c(c1=O)SCC2` the Potency was inconclusive: 18.4 µM [activator, single point]. With `CC(C)c1ccc(S(=O)(=O)N2CCN(C(=O)n3ccnc3)CC2)cc1` the lipid storage change, negative = inhibition was inconclusive: -5.07%. With `CN1CCN(c2ccc(NC(=O)c3cc(S(N)(=O)=O)ccc3N3CCOCC3)cc2)CC1` the Potency was inconclusive: 2.06 µM [activator, single point]. In the case of `COc1ccc(S(=O)(=O)N2CCCC2CNC(=O)C(=O)NCc2ccccc2)cc1` (stereo not given), the Potency is reported as inconclusive: 7.31 µM [rising, partial curve]. For `O=C(COC(=O)c1ccc2ccccc2c1O)NCC(F)(F)F`, the Potency was inconclusive: 0.0052 µM [falling, full curve, poor fit]. In the case of `Cc1ccc(CSc2nnc([C@@H]3CCCN3C(=O)OC(C)(C)C)o2)cc1`, the lipid storage change, negative = inhibition is reported as “inactive”. For `O=C(c1ccc(CSc2nc3ccncc3[nH]2)cc1)N1CCCCCC1`, the lipid storage change, negative = inhibition was inconclusive: -14.2%. For `O=C(CC1C(=O)CCCC1=O)c1ccccc1`, the lipid storage change, negative = inhibition was inconclusive: 6.98%. In the case of `COc1ccc(N2CCN(C(=O)c3cc(=O)[nH]c4ccccc34)CC2)cc1`, the lipid storage change, negative = inhibition is reported as inconclusive: 44.2%. For `Cc1ccc(NC(=O)C(=O)N2CCCC2)cc1Cl`, the Potency was inconclusive: 29.1 µM [activator, single point]. In the case of `S=C(Nc1cc(Cl)cc(Cl)c1)N1CCN(c2ccccn2)CC1`, the Potency is reported as inconclusive: 9.2 µM [activator, partial curve]. In the case of `CNC(=O)Nc1ccc2nc(C)oc2c1`, the lipid storage change, negative = inhibition is reported as inconclusive: -16.9%. In the case of `COc1ccc(NS(=O)(=O)c2ccc3c(c2)CCC(=O)N3)cc1O`, the lipid storage change, negative = inhibition is reported as “inconclusive”. For `Oc1ccc(-c2csc(Nc3ccccn3)n2)c(O)c1`, the lipid storage change, negative = inhibition was inconclusive: 40.2%. For `COc1ccccc1NC(=O)CSc1nc(SC)ns1`, the Potency was inconclusive: 0.517 µM [activator, partial curve]. In the case of `OCCc1c[nH]c2cc(F)ccc12`, the lipid storage change, negative = inhibition is reported as inconclusive: -20.3%. In the case of `CCN(CC)C(=O)Cn1nnc(-c2ccc(C)o2)n1`, the Potency is reported as inconclusive: 0.366 µM [falling, partial curve, poor fit]. With `COC(=O)CN(c1ccc2c(c1)OCO2)S(=O)(=O)c1c(C)[nH]c(=O)[nH]c1=O` the lipid storage change, negative = inhibition was inconclusive: 23%. In the case of `Cc1nn(C(C)C(=O)NC2CC2)c(=O)c2nn(-c3ccccc3)c(C)c12` (stereo not given), the Potency is reported as inconclusive: 29.1 µM [activator, single point]. With `O=C(Nc1cccc(F)c1)C1CC(=O)N(c2ccc(Cl)cc2)C1` (stereo not given) the Potency was inconclusive: 3.26 µM [falling, partial curve, poor fit]. With `O=C(CSc1ncccc1C(=O)O)Nc1ccc2c(c1)OCCO2` the lipid storage change, negative = inhibition was inconclusive: 26.5%. For `Cc1ccc(S(=O)(=O)N2CCCCC2)cc1NC(=O)c1ccc2ccccc2n1`, the Potency was inconclusive: 5.8 µM [falling, single point]. With `COc1ccc(C)cc1S(=O)(=O)NC(C)C(=O)Nc1ccc2c(c1)OCO2` (stereo not given) the lipid storage change, negative = inhibition was inconclusive: -13.6%. In the case of `Cc1ccc(C(=O)OCC(=O)Nc2ccc3c(c2)OCO3)cc1S(=O)(=O)N1CCOCC1`, the lipid storage change, negative = inhibition is reported as “inactive”. In the case of `O=C(Nc1nc2ccc(F)cc2s1)c1ccccn1`, the lipid storage change, negative = inhibition is reported as inconclusive: 20.4%. In the case of `CCS(=O)(=O)N1CCCC(C(=O)NCc2ccccc2Cl)C1` (stereo not given), the lipid storage change, negative = inhibition is reported as inconclusive: 21.4%. With `Cc1ccc(C(=O)NCCNC(=O)COc2ccccc2Cl)cn1` the lipid storage change, negative = inhibition was inconclusive: 34.6%. In the case of `CC12C(=O)N(n3cnnc3)C(=O)C1C1C=CC2C1` (stereo not given), the Potency is reported as active: 18.4 µM. In the case of `CC(=O)NC1=NN(C(C)=O)C(c2ccc(C(C)C)cc2)S1` (stereo not given), the lipid storage change, negative = inhibition is reported as inconclusive: 13%. With `CC(C)c1ccccc1NC(=O)Nc1ccc2c(c1)OCO2` the lipid storage change, negative = inhibition was inconclusive: 22.3%.
